# Results reported in article PMC6544628, “Plasmodium pseudo-Tyrosine Kinase-like binds PP1 and SERA5 and is exported to host erythrocytes” (Scientific Reports, 2019).
# Biological target: PfeIf2γ-GST (P. falciparum)
# Assay: pull-down; both purified
row,Binder,binding
1,"His6-pTKL_RVxF1 (domain or fragment, UniProt Q8IIT5 391-551) TNKNIKKGKNIKKEKKKKKEKNIKKEKKKKKKETKKFNNMDKKYIDLAIHKNVKNIQNDTFYNKHENIYNCKNQTNFIYQNDSEIKKIMNKKKVSFEYDNNEEKKKKNIIKFIKNNKSLQNSNGEYYLINHLSKGICSDSIFYKSSQSKSSSQLSSPLSSP",no binding (tested: 2 μg)
2,"pTKL_KD_WT (domain or fragment, UniProt Q8IIT5 1088-1483) FHYQHNVLCGAYDNNDNNINDNDIYCNNIYDNNINDNHIYCNNINDNHIYCNNINDNHIYCNNIYDHHKNTSLNSKEQNTDHNIEQINECNKYASETKYNIKKSNLKNNIISHKNFQKCNQIQMNQPYTFPPYQKELSSYLKNEKIKRKRKVLFSYLKTHIHFNSQQINDQHNRLSVQKIMKIITDVTLACTYLEKEKMSPINLKPTNILLDESLNAKISDFGISKIENCLDMNIDYSYKISSNSVIKINKKEYEQKKAKKIKIVNKNNNDLLYLYDHNNNVYKYNTQYIDVTYNNSYPSIFYWTPPEILRGKKNKKFYSDIYAFGIILWEMLSNDIPYNYPFASHIMAVVGYANEELSFNNIPVSIQSLIKACVNRNKYKRPTFEHILKTISTLY",no binding (tested: 2 μg)

# Results are given in words; binding and its absence hold for the method and conditions named. Where a sequence is shown, tags or fusion partners need not be part of it.
